Here are results for one molecule from article PMC6299225.

No constants are given. Whether binding was seen depends on the method and setting. Binding seen in cells or lysates may run through a third protein. A yes stands for co-enrichment or nearness to the bait. Other partners may have been found.

The assay addresses TbPRMT1 prozyme subunit, C-terminally Myc-His-TAP-tagged (PRO-MHT) (T. brucei). Kind of assay: affinity purification with mass spectrometry; PRO-MHT expressed in procyclic-form T. brucei and purified with associated proteins; complexes eluted by TEV protease cleavage; cells without induced PRO-MHT as negative control; proteins with <2.5x peptides over the negative control removed.

B1: TbPRMT1 enzymatic subunit (ENZ) (protein, UniProt Q4GYA9 1-345)
chain: MTVDANAASSTTTTTDYYFDSYSHYGIHMEMLKDCHRTTSYRDAMWRNAYLFKDKVVLDVGCGTGILSMFAAKAGARKVIGVDCSTVAVQAREIVRDNGFEDVITIIQGKVEEIQLDEKVDIIISEWMGYFLLYESMLNTVLYARDNLGTPDVKMFPDKANMHVCGITDEQYIQERFNIWDNVQGIDFSYFKRLSFIEPLVDTVERSQIVTNVAPLVSFDINTVKEADLSFTSEFALEAQASRGKRNGGNSIIYVHALSVHFDTPFTAGHEVVILDTTPYSPPTHWRQTVLYLFNPLRMRAGERATFRMKCSPNALNGRDLDISLHVDFEGALQISHYDQDFRLR
For the molecule B1, the binding result was “binds”.
